The target in this assay is AML1-ETO fusion protein (UniProt Q01196 1-177; Q06455 30-604, limits assumed). The assay can be described thus: cell-based or functional assay.

By UniProt entry, the sequences of proteins in these tests, tags left out. Chains listed by the source or under a name are the forms on record and can include a tag or linker.
UniProt Q01196, other isoform, or with tags, fused parts or gaps limits assumed: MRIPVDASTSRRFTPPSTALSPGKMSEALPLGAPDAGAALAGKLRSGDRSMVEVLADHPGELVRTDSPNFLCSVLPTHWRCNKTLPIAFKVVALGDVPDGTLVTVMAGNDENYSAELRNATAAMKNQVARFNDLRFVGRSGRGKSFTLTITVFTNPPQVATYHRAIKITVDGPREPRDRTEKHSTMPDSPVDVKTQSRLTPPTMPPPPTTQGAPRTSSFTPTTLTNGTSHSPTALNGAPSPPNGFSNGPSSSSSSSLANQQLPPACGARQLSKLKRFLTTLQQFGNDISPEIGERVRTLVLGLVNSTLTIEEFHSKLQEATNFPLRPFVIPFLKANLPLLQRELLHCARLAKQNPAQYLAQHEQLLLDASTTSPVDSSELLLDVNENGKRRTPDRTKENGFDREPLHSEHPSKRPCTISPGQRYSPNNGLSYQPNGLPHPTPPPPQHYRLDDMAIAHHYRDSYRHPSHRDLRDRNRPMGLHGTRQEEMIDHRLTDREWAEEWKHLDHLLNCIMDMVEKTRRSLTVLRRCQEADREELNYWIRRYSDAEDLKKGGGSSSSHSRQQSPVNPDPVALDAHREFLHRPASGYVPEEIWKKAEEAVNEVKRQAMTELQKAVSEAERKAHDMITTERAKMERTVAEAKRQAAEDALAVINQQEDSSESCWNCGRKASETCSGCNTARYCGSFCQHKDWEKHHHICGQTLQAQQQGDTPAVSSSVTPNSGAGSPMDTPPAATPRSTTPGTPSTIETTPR

A value given as a limit tells only on which side of the number the result lay.

B1: GFP-M&M (designed binder, not shown: large carriers)
chain: VIANYLPNRTDVQCQHRWQKVLNPELIKGPWTKEEDQRVIELVQKYGPKRWSVIAKHLKGRIGKQCRERWHNHLNPEVKKTSWTEEEDRIIYQAHKRLGNRWAEIAKLLPGRTDNAIKNHWNSTMRRKVEQEGYATSHTMSTAEVLLNMESPSDILDEKQIFSTSEMLPDSDPAPAVTLPNYLFPASEPDALNRAGDTSDQEGHSLEEKASREESAKKTGKSKKRIRKTKGNRSTSPVTDPSIPIRKKSKDGKG
With B1, the “inhibition of promoter activity (myb-TK luciferase reporter, KCL22 cells co-transfected with GFP-M&M and AML1-ETO)” value was over 5 fold.

These data come from patent US20060166876A1 (ONCOSCIENCE, published 2006).
